Test: Sweetening and flavouring agent taste / palatability investigation

## OC[C@H]1O[C@H](O[C@]2(CCl)O[C@H](CCl)[C@@H](O)[C@@H]2O)[C@H](O)[C@@H](O)[C@H]1Cl [sucralose]
  concentration found to provide a sufficient level of sweetness: 0.05%-0.1
